Values from PubChem BioAssay AID652259 (Drosophila RNAi Screening Center, 2013).

Assay: 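Genome-wide hunt for genes that control Wingless pathway activity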 (primary screen)
Cells: Drosophila clone 8 imaginal disc epithelial cells
Reagent: long dsRNA against Drosophila genes
Challenge: pathway stimulated by co-transfected Wingless expression plasmid
Measured: 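Dual luciferase reads per well after Wingless plasmid stimulation: reporter firefly light and Renilla control light; activity is firefly divided by Renilla, a ratio not deposited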
Scale: firefly reporter light: higher = more Wg reporter light, before normalisation; Renilla control light: higher = more transfected or surviving cells
Active means: 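a knock-down is a candidate when at least two out of four statistical tests show it departing from its plate mean; one test alone signals a weak candidate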
Meaning of the calls: active = candidate regulator (raises or lowers reporter); inactive = not a candidate
The deposit covers about 22,000 reagents; below is an unselected part of those that have a named target and a result. Of all reagents, 233 (1.1%) got an active call. 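Light values are raw, unnormalised plate reads; the ratio scores behind the reporter calls were not deposited.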 Entries without a mark were called inactive. The numbers tell different reagents against one gene apart. The record does not give: the amount of reagent, the time to read-out, the dose of the treatment.

CG10208: firefly reporter light, replicate 1 = 20802; Renilla control light, replicate 1 = 15291
SmydA-3 #1: firefly reporter light, replicate 1 = 1920; firefly reporter light, replicate 2 = 6966; Renilla control light, replicate 1 = 888; Renilla control light, replicate 2 = 3156
SmydA-3 #2: firefly reporter light, replicate 1 = 2562; firefly reporter light, replicate 2 = 4576; Renilla control light, replicate 1 = 903; Renilla control light, replicate 2 = 2259
vig #1: firefly reporter light, replicate 1 = 4160; firefly reporter light, replicate 2 = 9249; Renilla control light, replicate 1 = 2428; Renilla control light, replicate 2 = 4610
vig #2: firefly reporter light, replicate 1 = 15489; Renilla control light, replicate 1 = 1088
vig #3: firefly reporter light, replicate 1 = 7.51e5; firefly reporter light, replicate 2 = 7.90e5; Renilla control light, replicate 1 = 1.89e5; Renilla control light, replicate 2 = 1.57e5
Spn #1: firefly reporter light, replicate 1 = 2140; Renilla control light, replicate 1 = 1125
Spn #2: firefly reporter light, replicate 1 = 13408; Renilla control light, replicate 1 = 3334
Spn #3: firefly reporter light, replicate 1 = 5052; Renilla control light, replicate 1 = 1981
CG15167: firefly reporter light, replicate 1 = 2977; firefly reporter light, replicate 2 = 6253; Renilla control light, replicate 1 = 774; Renilla control light, replicate 2 = 2641
CG11095: firefly reporter light, replicate 1 = 1944; firefly reporter light, replicate 2 = 4605; Renilla control light, replicate 1 = 556; Renilla control light, replicate 2 = 2043
mats #1: firefly reporter light, replicate 1 = 2963; Renilla control light, replicate 1 = 1585
mats #2: firefly reporter light, replicate 1 = 3168; firefly reporter light, replicate 2 = 5296; Renilla control light, replicate 1 = 1421; Renilla control light, replicate 2 = 2253
Cph #1: firefly reporter light, replicate 1 = 5424; Renilla control light, replicate 1 = 1217
Cph #2: firefly reporter light, replicate 1 = 19064; Renilla control light, replicate 1 = 6521
robl62A: firefly reporter light, replicate 1 = 4312; Renilla control light, replicate 1 = 2608
CG12523: firefly reporter light, replicate 1 = 8048; Renilla control light, replicate 1 = 3542

Quoted from the listing, 3 entries:
CG10208: firefly reporter light, replicate 1 = 20802; Renilla control light, replicate 1 = 15291
SmydA-3 #1: firefly reporter light, replicate 1 = 1920; firefly reporter light, replicate 2 = 6966; Renilla control light, replicate 1 = 888; Renilla control light, replicate 2 = 3156
SmydA-3 #2: firefly reporter light, replicate 1 = 2562; firefly reporter light, replicate 2 = 4576; Renilla control light, replicate 1 = 903; Renilla control light, replicate 2 = 2259
